These results are taken from US20090075929A1.

Amino acid sequences for entries named in this document (tags omitted). Residues count along the entry.
UniProt O14763, residues 56-440: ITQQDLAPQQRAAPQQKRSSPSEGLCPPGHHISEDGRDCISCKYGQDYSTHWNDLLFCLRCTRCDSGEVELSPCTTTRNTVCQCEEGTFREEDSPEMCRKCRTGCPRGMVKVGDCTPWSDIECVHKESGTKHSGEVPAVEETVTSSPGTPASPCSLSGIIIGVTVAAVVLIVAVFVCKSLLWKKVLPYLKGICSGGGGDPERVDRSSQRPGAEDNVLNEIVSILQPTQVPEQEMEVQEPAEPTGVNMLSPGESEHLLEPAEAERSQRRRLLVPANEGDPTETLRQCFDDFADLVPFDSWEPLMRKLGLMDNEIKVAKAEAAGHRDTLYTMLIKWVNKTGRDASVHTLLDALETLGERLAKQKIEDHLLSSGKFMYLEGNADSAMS
UniProt Q13158: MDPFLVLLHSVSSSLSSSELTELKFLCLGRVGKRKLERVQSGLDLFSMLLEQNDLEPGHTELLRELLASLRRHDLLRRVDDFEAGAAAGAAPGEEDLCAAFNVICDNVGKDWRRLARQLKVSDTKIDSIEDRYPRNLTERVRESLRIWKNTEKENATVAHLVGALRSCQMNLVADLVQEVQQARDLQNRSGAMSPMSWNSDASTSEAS

No constants are given. Whether binding was seen depends on the method and setting. Some entries that bind do so weakly or less than the wild type.

For this assay, the target named is DR5 (death receptor 5), endogenous in PA-1 cells (UniProt O14763). The experiment in a line: IP of DR5 from PA-1 lysates, immunoblot for FADD.

As for “FADD, endogenous (from UniProt Q13158 1-208)”, the binding result was “binds”.
